Results on two molecules are retold here after publication PMC12644026.

Sequences of proteins named here, by UniProt entry; tags and fusion partners are left off. A change or cut given only in a name is not applied to a line headed by its entry. A line that says so, or that is headed by a name, gives the form on record, which may keep a tag or linker.
BirA-Cdc42 G12V (P60953, form named): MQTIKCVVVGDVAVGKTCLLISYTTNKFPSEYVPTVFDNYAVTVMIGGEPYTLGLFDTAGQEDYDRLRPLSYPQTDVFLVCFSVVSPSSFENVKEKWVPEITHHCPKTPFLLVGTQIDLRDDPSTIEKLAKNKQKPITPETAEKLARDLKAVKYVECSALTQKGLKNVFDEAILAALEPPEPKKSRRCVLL

No constants are given. Whether binding was seen depends on the method and setting. Binding seen in cells or lysates may run through a third protein. These calls come from enrichment with a bait or labelling near it, and not all partners need be listed.

The target in one assay is BirA-Cdc42 WT (UniProt P60953). Description: proximity labelling; BioID in immortalized human podocytes expressing doxycycline-inducible BirA-Rho GTPase baits; 16 h with 1 ug/mL doxycycline (0.1 ug/mL for constitutively active mutants) and 50 uM biotin; RIPA lysis; biotinylated proteins pulled down on streptavidin beads; mass spectrometry; SAINT AvgP >= 0.95; controls empty MYC-BirA vector and BirA*-Flag-GFP.

Assay [1] addresses BirA-Cdc42 G12V (constitutively active Cdc42) (UniProt P60953). The assay is described as above.

As for ARHGEF40 (from UniProt Q8TER5 1-1519), in the assay with BirA-Cdc42 WT, the binding entry was “binds”.

B1: WIPF2 (protein, UniProt Q8TF74 1-440)
chain: MPIPPPPPPPPGPPPPPTFHQANTEQPKLSRDEQRGRGALLQDICKGTKLKKVTNINDRSAPILEKPKGSSGGYGSGGAALQPKGGLFQGGVLKLRPVGAKDGSENLAGKPALQIPSSRAAAPRPPVSAASGRPQDDTDSSRASLPELPRMQRPSLPDLSRPNTTSSTGMKHSSSAPPPPPPGRRANAPPTPLPMHSSKAPAYNREKPLPPTPGQRLHPGREGPPAPPPVKPPPSPVNIRTGPSGQSLAPPPPPYRQPPGVPNGPSSPTNESAPELPQRHNSLHRKTPGPVRGLAPPPPTSASPSLLSNRPPPPARDPPSRGAAPPPPPPVIRNGARDAPPPPPPYRMHGSEPPSRGKPPPPPSRTPAGPPPPPPPPLRNGHRDSITTVRSFLDDFESKYSFHPVEDFPAPEEYKHFQRIYPSKTNRAARGAPPLPPILR
As to B1, the binding entry in assay [1] was “binds”.
